# PubChem BioAssay AID2685 (National Center for Advancing Translational Sciences (NCATS), 2010)
# The other results are listed elsewhere or left out. Further columns of the screen follow, without active or inactive calls. Most of these compounds were active or inconclusive in the main read-out, so they are no random draw. Words in brackets tell the shape of the fitted curve; partial curves, single points and poor fits give uncertain potencies.
# Assay: qHTS Assay for Lipid Storage Modulators in Drosophila S3 Cells;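 for cell number change: cells counted by Cell Tracker Red CMTPX staining in the red channel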
# Settings: BODIPY lipid droplet fluorescence, 18-24 h; for cell number change: measured here: cell count max response, cells fed with added oleic acid
# How it was run: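 Drosophila S3 cells got compounds at several concentrations plus oleic acid (400 uM solution). Laser-scanning cytometry with 488 nm excitation read lipid droplets at 500-530 nm and cells at 575-640 nm. Percent activity was relative to 20 uM Triacsin C.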
# [1] = measured here: lipid fluorescence (Fed channel) AC50, cells fed with added oleic acid
# [2] = measured here: cell number channel AC50, cells fed with added oleic acid
smiles,measurement,setting,value
COc1cccc(C(=O)NNC(=O)CCC(=O)O)c1,cell number change,,-22.5%
same,AC50,[1],"0.231 µM [falling, full curve]"
C/C(=N/OC(=O)CC(C)C)c1cc(-c2ccc(Cl)cc2)no1,cell number change,,-39.1%
Nc1ccc(-c2c3ccc(=O)cc-3oc3cc(O)ccc23)c(C(=O)O)c1,cell number change,,-92.1%
same,AC50,[2],"25.9 µM [falling, partial curve]"
same,AC50,[1],"0.58 µM [falling, single point]"
Cc1ccc(-c2cc3nc(C)cc(NCc4ccco4)n3n2)cc1,cell number change,,-13.7%
Cc1ccc(C)c(S(=O)(=O)N2CCCOC2CNC(=O)C(=O)NCc2cccs2)c1 (centres undefined),cell number change,,6.65%
same,AC50,[1],"18.4 µM [rising, single point]"
COc1ccc(CN(C)C(C)C(=O)Nc2ccc(S(=O)(=O)N3CCCCC3)cc2)cc1F (centres undefined),cell number change,,-35%
same,AC50,[2],"9.2 µM [falling, partial curve]"
same,AC50,[1],"0.82 µM [rising, full curve]"
Cc1cc(=O)oc2cc(OCC(=O)N3CCCC(C)C3)ccc12 (centres undefined),cell number change,,-5.71%
same,AC50,[1],"0.13 µM [rising, full curve, poor fit]"
O=C(CSc1nnc(NC(=O)c2ccco2)s1)Nc1ccccc1Br,cell number change,,-0.435%
same,AC50,[1],"6.51 µM [rising, single point]"
O=Nc1[nH]c(=O)c(/C=C(\O)c2ccccc2)nc1NO,cell number change,,1.8%
Cc1ccccc1NC1c2ccccc2C(=O)N1Cc1ccco1 (centres undefined),cell number change,,27.2%
same,AC50,[1],"29.1 µM [rising, single point]"
CCCCC(O)(CCCC)C(=O)N/N=C(\C)c1ccc(Cl)cc1,cell number change,,-24.9%
same,AC50,[1],"29.1 µM [falling, single point]"
COc1cc(-c2nnn(Cc3ccccc3C)n2)cc(OC)c1OC,cell number change,,11.5%
same,AC50,[1],"20.6 µM [rising, single point]"
Cc1sc2nc(-c3cccs3)nc(N3CCCN(C)CC3)c2c1C,AC50,[2],"4.11 µM [falling, partial curve, poor fit]"
CCN(CC)CC(O)Cn1c(-c2cccc(Cl)c2)nc2cc(C)c(C)cc21 (centres undefined),cell number change,,-1.2%
same,AC50,[1],"0.731 µM [falling, full curve, poor fit]"
CCOc1cc(-c2sc(Nc3ccc(CC)cc3)n[n+]2-c2ccccc2)ccc1OC,cell number change,,-37.7%
same,AC50,[2],"0.0731 µM [falling, full curve, poor fit]"
same,AC50,[1],"0.58 µM [falling, single point]"
Cc1ccc(OCCC(=O)NNC(=O)c2nn(C)c(=O)c3ccccc23)cc1,cell number change,,8.53%
same,AC50,[1],"0.00411 µM [rising, full curve, poor fit]"
O=C(Nc1ccccc1)Nc1cc(OCC(F)(F)F)cc(OCC(F)(F)F)c1,cell number change,,-64.4%
same,AC50,[2],"14.6 µM [falling, partial curve]"
same,AC50,[1],"6.51 µM [falling, partial curve]"

# Pulled one by one from the entries so far (3):
smiles,measurement,setting,value
COc1ccc(CN(C)C(C)C(=O)Nc2ccc(S(=O)(=O)N3CCCCC3)cc2)cc1F (centres undefined),AC50,[2],"9.2 µM [falling, partial curve]"
CCOc1cc(-c2sc(Nc3ccc(CC)cc3)n[n+]2-c2ccccc2)ccc1OC,AC50,[1],"0.58 µM [falling, single point]"
O=C(CSc1nnc(NC(=O)c2ccco2)s1)Nc1ccccc1Br,cell number change,,-0.435%
